Experimental data as given in patent US20030091567A1.
Results are given in words; binding and its absence hold for the method and conditions named. In cells and extracts the contact can be indirect. Some binding calls cover weakened binding; strength is not graded here.

Protein sequences, listed by entry. Tags and fused reporters are not part of them. Lines headed by an entry give the natural chain unless they say otherwise; changes in a name come on top. Chains listed by the source or under a name are the forms on record and can include a tag or linker.
recombinant Flt4 extracellular domain with C-terminal 6xHis tag (baculovirus), coupled to Sepharose (P35916, form named): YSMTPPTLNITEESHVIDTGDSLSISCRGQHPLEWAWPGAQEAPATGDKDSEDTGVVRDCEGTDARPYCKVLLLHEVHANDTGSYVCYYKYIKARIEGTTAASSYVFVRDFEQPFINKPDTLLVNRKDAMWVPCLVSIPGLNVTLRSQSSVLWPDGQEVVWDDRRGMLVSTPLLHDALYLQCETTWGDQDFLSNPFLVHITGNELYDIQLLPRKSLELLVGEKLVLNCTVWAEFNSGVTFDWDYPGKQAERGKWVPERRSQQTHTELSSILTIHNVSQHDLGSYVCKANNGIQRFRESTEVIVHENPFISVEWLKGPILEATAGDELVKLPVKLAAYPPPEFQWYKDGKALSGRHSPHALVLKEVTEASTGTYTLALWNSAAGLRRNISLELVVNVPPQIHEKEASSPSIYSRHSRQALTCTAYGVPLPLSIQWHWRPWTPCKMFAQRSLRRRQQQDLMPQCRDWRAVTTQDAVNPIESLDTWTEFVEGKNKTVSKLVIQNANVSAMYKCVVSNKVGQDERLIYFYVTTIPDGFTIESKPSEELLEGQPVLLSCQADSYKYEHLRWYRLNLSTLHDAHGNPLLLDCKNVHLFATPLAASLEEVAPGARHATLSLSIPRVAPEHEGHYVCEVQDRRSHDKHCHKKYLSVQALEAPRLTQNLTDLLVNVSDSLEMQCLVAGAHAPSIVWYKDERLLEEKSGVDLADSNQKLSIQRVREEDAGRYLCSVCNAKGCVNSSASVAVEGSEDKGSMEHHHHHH

Molecular target: recombinant Flt4 extracellular domain with C-terminal 6xHis tag (baculovirus), coupled to Sepharose (human) (UniProt P35916)
Experiment: pull-down of 35S-labelled medium with VEGFR-3 extracellular domain coupled to sepharose

- binding: binds
B1: recombinant mouse VEGF-C (medium of Bosc23 cells transfected with mouse VEGF-C cDNA) (ligand)
chain: AHYNTEILKSIDNEWRKTQCMPREVCIDVGKEFGAATNTFFKPPCVSVYRCGGCCNSEGLQCMNTSTGYLSKTLFEITVPLSQGPKPVTISFANHTSCRCMSKLDVYRQVHSIIRR
